Data taken from patent US7524823B2, “Macrolides” (Basilea Pharmaceutica AG, priority 2005, dated 2009).

System: Human neutrophils
Experiment: Modulation of neutrophil elastase production
Assay type: cell-based
Conditions: test compound 50 μM; fMLP 0.1 μM, cytochalasin B 5 mg/L; blood from 3 donors
Source text: The neutrophil granulocyte is a key element of the inflammatory process. The neutrophils migrate to the site of inflammation and can be activated to release toxic products, including proteolytic enzymes such as elastase. […] Elastase is a major secreted product of activated neutrophils and is a major contributor to the destruction of tissue in inflammatory disease. Several bioassays based on the repression of secretion of elastase, have been described and used for the detection of anti-inflammatory products (Johansson, […]. Nat. Prod. 65: 32-41). […] The neutrophils are activated by addition of the bacterial product N-formyl methionyl-leucyl-phenylalanine (fMLP) and cytochalasin B, a stimulator of secretion. The amount of elastase secreted is determined by measuring the reaction of elastase with the chromogenic substrate succinyl-alanyl-alanyl-valyl-nitroanilide ([…]), which generates 4-nitroaniline after cleavage by elastase. […] Human neutrophils are isolated by applying whole heparinized blood to a Histopaque column and collecting the granulocytes by centrifugation. […] The total volume of the reaction mixture is 0.8 mL and concentrations specified are the final concentrations in the mixture. […] Neutrophil preparations from blood from 3 different donors were used in parallel. All samples were measured in duplicate. […]

CCC[C@@H]1C[C@@H](C(=O)N[C@@H]([C@H]2O[C@H](SC)[C@H](O)[C@@H](O)[C@H]2O)[C@H](C)Cl)N(C)C1 [Clindamycin, reference compound]
Average repression of activation (%): 4 ± 0.07%
